Assay results published in PubChem BioAssay AID504467 (National Center for Advancing Translational Sciences (NCATS), 2011).
Hit rate of the full screen: of about 330,000 compounds, about 7,700 (2.3%) were called active. Inconclusive means that the source gave no clear call. Such entries were picked first, then a sample of the others. Calls come from the whole dose curve; as a rule, active = well fitted inhibition curve with a large enough effect; inconclusive = small, poorly fitted or top-dose-only effect, or effect the other way; inactive = flat fitted curve, though single readings scatter. Potencies of inconclusive entries are doubtful fits and often do not repeat.

Assay: qHTS screen for small molecules that inhibit ELG1-dependent DNA repair in human embryonic kidney (HEK293T) cells expressing luciferase-tagged ELG1; note: nearly all actives have a fitted effect of over 55% in size
Details: HEK293T ELG1-luciferase reporter, luminescence, 16 h, DNA damage induced by 5-fluorouridine; activity change, negative = inhibition: at 46.1 µM (top of the series)
Procedure, shortened: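 Step one: seed 2,000 cells per well. Step two: pin-transfer compound or DMSO alongside 5-fluorouridine. Step three: incubate 16 hr, 37 °C, 5% CO2. Step four: add ONE-Glo, wait 30 min, read luminescence.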
% is set by controls: 0 for no effect and ±100 for the full control effect; potency is the fitted concentration of half-maximal effect.

**Q.** For Cc1cccc(OCCNc2cc(N3CCOCC3)ccc2[N+](=O)[O-])c1, which “activity change, negative = inhibition” value is on record?
**A.** inactive: 4.58%

**Q.** Which “activity change, negative = inhibition” value does the source give for O=c1oc2c(O)c(O)cc3c(=O)oc4c(O)c(O)cc1c4c23 here?
**A.** inactive: -18.7%

**Q.** Which Potency does the source give for NC(=O)C(NC(=O)OCc1ccccc1)c1ccccc1 (stereo not drawn) here?
**A.** inconclusive: 31.6 µM [activator, single point]

**Q.** For Cc1cc2c(cc(C(=O)OC(C(=O)NC3CCCCC3)C(C)C)n2C)o1 (stereo not drawn), which “activity change, negative = inhibition” value is on record?
**A.** inactive: -0.701%

**Q.** Which Potency does the source give for CC(=O)c1ccc(N2CCN(C(=O)c3cc(-c4ccc5c(c4)OCO5)nc4ccccc34)CC2)cc1 here?
**A.** inconclusive: 5.8 µM [inhibitor, full curve]

**Q.** For COc1cccc(C2=NOC(C(=O)Nc3ccc(C(C)=O)cc3)C2)c1 (stereo not drawn), which Potency is on record?
**A.** inconclusive: 13 µM [activator, partial curve, poor fit]

**Q.** With COc1cc2nc(Nc3ccc(C)c(C)c3)nc(N)c2cc1OC as the compound, how does the “activity change, negative = inhibition” value read?
**A.** inactive: -2.54%

**Q.** Which Potency does the source give for C[C@H](CO)N1C[C@H](C)[C@@H](CN(C)S(=O)(=O)c2ccccc2)Oc2ccc(NS(=O)(=O)c3ccc(F)cc3)cc2C1=O here?
**A.** inconclusive: 8.2 µM [inhibitor, partial curve]

**Q.** For C=CCNC(=S)Nc1ccc(Cl)cc1F, which Potency is on record?
**A.** inconclusive: 18.3 µM [inhibitor, partial curve]

**Q.** With COc1cc(/C=N/NC(=O)COc2cccc(F)c2)ccc1OS(=O)(=O)c1ccc(C)cc1 as the compound, how does the Potency read?
**A.** active: 18.4 µM

**Q.** For CCOc1ccc(S(=O)(=O)N(CC(=O)N/N=C/c2ccc(-c3ccc([N+](=O)[O-])cc3)o2)c2ccccc2)cc1, which Potency is on record?
**A.** inconclusive: 14.6 µM [inhibitor, partial curve, poor fit]

**Q.** Which Potency does the source give for FC(F)(F)C(Oc1nc(Nc2ccc(Cl)cc2)nc(N2CCOCC2)n1)C(F)(F)F here?
**A.** inconclusive: 23.1 µM [inhibitor, single point]

**Q.** With Cc1ccnc(NC(=S)NC(=O)c2ccco2)c1 as the compound, how does the Potency read?
**A.** inconclusive: 9.2 µM [activator, partial curve]

**Q.** Which Potency does the source give for Cc1nn(C)c(C(=O)NCc2ccc(Cl)cc2)c1Cl here?
**A.** inconclusive: 0.184 µM [inhibitor, partial curve, poor fit]

**Q.** Which Potency does the source give for COc1ccc(C(=O)NN=C2CCCC2)c(OC)c1 here?
**A.** inconclusive: 32.6 µM [inhibitor, single point]

**Q.** With CCOC(=O)C(=O)NCC(c1cccs1)S(=O)(=O)c1ccc(F)cc1 (stereo not drawn) as the compound, how does the “activity change, negative = inhibition” value read?
**A.** inactive: 3.35%

**Q.** For CN(C)S(=O)(=O)c1ccc(Cl)c(C(=O)Nc2cccc([N+](=O)[O-])c2)c1, which Potency is on record?
**A.** active: 8.2 µM

**Q.** For Cc1cccc(C(=O)N2c3ccccc3C(=O)OC2c2ccc3c(c2)OCO3)c1 (stereo not drawn), which Potency is on record?
**A.** inconclusive: 23.1 µM [activator, partial curve]

**Q.** For CCNC(=O)NC1(C(=O)N2CCC(Cc3ccccc3)CC2)CCCCC1, which “activity change, negative = inhibition” value is on record?
**A.** inactive: 1.81%

**Q.** For Cc1ccc(C)c(S(=O)(=O)N2CCC3(CC2)OCCN3S(=O)(=O)c2cccs2)c1, which Potency is on record?
**A.** inconclusive: 3.66 µM [inhibitor, single point]

**Q.** With O=C(N/N=C/c1c[nH]c2ccc(Br)cc12)c1ccn(Cc2ccc(Cl)cc2)n1 as the compound, how does the Potency read?
**A.** inconclusive: 29.1 µM [inhibitor, single point]

**Q.** Which Potency does the source give for COc1ccc(C2=NN(C(=O)c3ccccc3)C(c3ccc(OC)c(OC)c3)C2)c(O)c1 (stereo not drawn) here?
**A.** inconclusive: 18.3 µM [inhibitor, partial curve, poor fit]

**Q.** Which Potency does the source give for COc1ccc(-c2nc(CSCC(=O)NC3CCN(Cc4ccccc4)CC3)c(C)o2)cc1OC here?
**A.** inconclusive: 20.6 µM [inhibitor, single point]

**Q.** For Cc1ccc(OCC(=O)Nc2c3c(nn2C(C)(C)C)CS(=O)(=O)C3)cc1, which “activity change, negative = inhibition” value is on record?
**A.** inactive: 0%

**Q.** With CCOc1ccc(C(CCc2ccccc2)NC(=O)c2ccccc2OC)cc1OCC (stereo not drawn) as the compound, how does the Potency read?
**A.** inconclusive: 23.1 µM [inhibitor, single point]

**Q.** Which Potency does the source give for N=c1c2c(-c3ccccc3)c(-c3ccccc3)n(Cc3ccco3)c2ncn1Cc1ccccc1 here?
**A.** inconclusive: 29.1 µM [inhibitor, single point]

**Q.** Which “activity change, negative = inhibition” value does the source give for COc1ccc(CC(=O)NC(C)c2ccc3ccccc3c2)cc1 (stereo not drawn) here?
**A.** inactive: 4.2%

**Q.** For COC(=O)c1ccc(CNC(=O)COC(=O)/C=C/c2ccc(O)c(OC)c2)cc1, which Potency is on record?
**A.** inconclusive: 25.9 µM [inhibitor, single point]

**Q.** With O=C(c1ccc2nc(Cc3cccc(Cl)c3)oc2c1)N1CCOCC1 as the compound, how does the Potency read?
**A.** inconclusive: 14.6 µM [activator, partial curve]

**Q.** With Cc1ccc(CNC(=O)c2cncc(Br)c2)cc1 as the compound, how does the Potency read?
**A.** inconclusive: 23.1 µM [inhibitor, partial curve, poor fit]

**Q.** For COc1cccc(CN2CCNC(=O)C2CC(=O)N(C)CC2CCOCC2)c1 (stereo not drawn), which Potency is on record?
**A.** inconclusive: 25.9 µM [activator, partial curve, poor fit]

**Q.** Which “activity change, negative = inhibition” value does the source give for COc1ccc(CC2(CO)CCN(Cc3cnn(-c4ccccc4OC)c3)CC2)cc1 here?
**A.** inactive: -6.31%

**Q.** For C[C@H](NC(=O)N1CCn2c1nc1ccccc12)C(=O)NC1CC1, which “activity change, negative = inhibition” value is on record?
**A.** inactive: 14.6%

**Q.** With O=C(NCc1ccccc1Cl)c1cc2c(s1)CS(=O)(=O)C2 as the compound, how does the “activity change, negative = inhibition” value read?
**A.** inactive: 3.87%

**Q.** Which “activity change, negative = inhibition” value does the source give for COc1ccc(-c2nn(CCC(=O)O)cc2CCC(=O)O)cc1 here?
**A.** inactive: -5.89%

**Q.** With Cc1cc(OCCN2CCOCC2)ccc1C(C)C as the compound, how does the Potency read?
**A.** inconclusive: 25.9 µM [activator, single point]

**Q.** With CCC(C)NC(=O)C(Cc1ccccc1)NS(=O)(=O)c1ccc2c(c1)oc(=O)n2C (stereo not drawn) as the compound, how does the Potency read?
**A.** inconclusive: 29.1 µM [activator, single point]

**Q.** Which Potency does the source give for CCNC(=O)NC(=O)COc1ccccc1C#N here?
**A.** inconclusive: 10 µM [activator, partial curve]

**Q.** With COc1ccc(-c2noc(CCCC(=O)Nc3ccc(C(N)=O)cc3)n2)cc1OC as the compound, how does the Potency read?
**A.** inconclusive: 23.1 µM [activator, single point]

**Q.** Which “activity change, negative = inhibition” value does the source give for CC(=O)N(/N=C/c1ccc(C)cc1)c1nc(CCl)cs1 here?
**A.** inactive: 3.43%

**Q.** For COc1ccc(Cl)cc1Nc1nc(-c2sc(NC(=O)c3ccccc3)nc2C)cs1, which “activity change, negative = inhibition” value is on record?
**A.** inactive: -23.4%

**Q.** Which Potency does the source give for COc1ccc(/C(C)=N/Nc2nncc3ccccc23)cc1 here?
**A.** inconclusive: 3.26 µM [activator, full curve]

**Q.** Which Potency does the source give for O=[N+]([O-])c1cc(Cl)ccc1NCCc1ccccn1 here?
**A.** inconclusive: 18.3 µM [activator, partial curve]

**Q.** Which Potency does the source give for O=c1c2ccccc2nnn1CSc1nnc(COc2ccc(Cl)cc2)n1Cc1ccco1 here?
**A.** inconclusive: 11.2 µM [inhibitor, partial curve, poor fit]

**Q.** Which Potency does the source give for Cc1cc2c(NC(=O)Nc3ccc(C(C)(C)C)cc3)cccc2nn1 here?
**A.** active: 14.6 µM

**Q.** With Cc1nnc(SCC(=O)N2CCN(S(=O)(=O)c3ccc(Cl)cc3)CC2)n(N)c1=O as the compound, how does the Potency read?
**A.** inconclusive: 12.6 µM [inhibitor, partial curve]

**Q.** With Cc1ccc(S(=O)(=O)N(C(=O)c2ccncc2)c2ccc(OC(=O)c3ccncc3)cc2)c(C)c1 as the compound, how does the Potency read?
**A.** inconclusive: 5.17 µM [inhibitor, full curve]

**Q.** For CC(C)CC1C(C#N)=C(N)SC(N)=C1C#N, which Potency is on record?
**A.** inconclusive: 18.4 µM [inhibitor, partial curve]

**Q.** With CC1CCCN(c2ccc(C(=O)NCC3CCCO3)cn2)C1 (stereo not drawn) as the compound, how does the Potency read?
**A.** inconclusive: 18.4 µM [activator, partial curve]

**Q.** For CC(C)CN1C(=O)c2ccc(C(=O)Nc3ccncc3)cc2C1=O, which Potency is on record?
**A.** inconclusive: 4.47 µM [inhibitor, full curve]

**Q.** With COc1cc(/C=C2\SC(=S)N(NC(C)=O)C2=O)ccc1OC(=O)c1ccco1 as the compound, how does the Potency read?
**A.** inconclusive: 20.6 µM [activator, single point]

**Q.** For CCN(CC(=O)NCc1ccc(F)cc1)C(=O)c1ccc(COc2ccccc2)cc1, which Potency is on record?
**A.** inconclusive: 20.6 µM [activator, single point]

**Q.** With Fc1ccccc1CSc1nc2ncc(Br)cc2[nH]1 as the compound, how does the Potency read?
**A.** inconclusive: 18.4 µM [activator, single point]

**Q.** For Oc1[nH]c(N=C2N=c3ccccc3=N2)c2ccccc12, which Potency is on record?
**A.** inconclusive: 9.2 µM [activator, partial curve]

**Q.** Which Potency does the source give for COc1ccc(CCNC(=O)CC(c2ccccc2)c2cc(C)ccc2O)cc1OC (stereo not drawn) here?
**A.** inconclusive: 25.9 µM [inhibitor, single point]

**Q.** With C=CCC[C@H](Cc1ccc(F)cc1)C(=O)OC[C@@H](NC(=O)[C@@H](CC=C)CC(=O)N[C@H](CO)Cc1ccccc1)C(C)(C)C as the compound, how does the “activity change, negative = inhibition” value read?
**A.** inactive: 0%

**Q.** Which Potency does the source give for CCc1ccc2oc(C(=O)NC3CCS(=O)(=O)C3)cc(=O)c2c1 (stereo not drawn) here?
**A.** inconclusive: 20.6 µM [activator, single point]

**Q.** With CCOc1ccc(OCCC(=O)Nc2cccc(S(=O)(=O)N3CCCC3)c2)cc1 as the compound, how does the “activity change, negative = inhibition” value read?
**A.** inactive: -21.2%

**Q.** Which “activity change, negative = inhibition” value does the source give for COc1ccc(-c2cc(C(=O)NCCN3CCOCC3)no2)cc1OC here?
**A.** inactive: 13.7%

**Q.** For CN(C)c1nc(N(C)C)nc(N2CC(CCl)OC2=N)n1 (stereo not drawn), which Potency is on record?
**A.** inconclusive: 23.1 µM [activator, single point]

**Q.** With Cc1ccc(NC(=O)C(Cc2ccccc2)N2C(=O)C3C4CCC(C4)C3C2=O)cc1Cl (stereo not drawn) as the compound, how does the Potency read?
**A.** active: 18.4 µM

**Q.** Which Potency does the source give for COc1cccc(/C=N/N2CCN(C)CC2)c1 here?
**A.** inconclusive: 18.4 µM [activator, partial curve]

**Q.** Which Potency does the source give for Cc1ccc(CNS(=O)(=O)c2c(C)nc3scc(C)n3c2=O)cc1 here?
**A.** inconclusive: 18.3 µM [activator, single point]

**Q.** Which Potency does the source give for Cc1ccc(Nc2nnc(-c3ccc4c(c3)OCO4)o2)c(C)c1 here?
**A.** inconclusive: 20.6 µM [activator, partial curve]

**Q.** Which Potency does the source give for C=CCn1c(-c2cccc(OC)c2OC)n[nH]c1=S here?
**A.** inconclusive: 9.2 µM [inhibitor, partial curve]

**Q.** Which Potency does the source give for CC(C)n1ncc2c(C(=O)NCC(=O)Nc3ccccc3Br)cc(C3CC3)nc21 here?
**A.** inconclusive: 25.9 µM [inhibitor, single point]

**Q.** Which Potency does the source give for Cc1nn(CC2CCCCC2)c(N)c1-c1ccccc1 here?
**A.** inconclusive: 18.4 µM [activator, partial curve]

**Q.** For Cc1ccc(C)c(NS(=O)(=O)c2ccc(NC(=O)c3ccco3)cc2)c1, which Potency is on record?
**A.** inconclusive: 20.6 µM [inhibitor, single point]
